According to US20180214519A1, “COMBINATION THERAPIES FOR MODULATION OF HISTONE METHYL MODIFYING ENZYMES” (Constellation Pharmaceuticals, Inc., priority 2015, published 2018):
At least one structure is not confirmed: it was looked up by name or label, or the drawing left a doubt.

Tested on: RL cells
Experiment: Cell viability assay (Cell Titer Glo) in RL lymphoma cells
Assay type: cell-based
Details: addition of 1 μM ruxolitinib

With N#CC[C@H](C1CCCC1)n1cc(-c2ncnc3[nH]ccc23)cn1 [ruxolitinib] the “effect on lymphoma cell killing by EZH2 inhibitor combination with interferons” value was “suppression of this phenotype”.
